Measurements as given in patent publication US5087620A, “Controlled dermal penetration enhancement using imidazoles” (Bristol-Myers Squibb Co., priority 1990, dated 1992).

Test: In vitro skin penetration study, excised human skin, Franz diffusion cells (Example 1A-1C)
Type: in vitro ADME
Procedure: The following test method may be employed with human skin to determine topical penetration of pharmacologically active steroids used in the practice of this invention. The procedure is also applicable to pig skin and rat skin. Normal excised human skin samples obtained from breast reduction were used. Appropriate size specimens were frozen on the microtome with carbon dioxide and sectioned to a layer around 200 micrometers thick and stored in normal saline at 5° C. The skin sections were mounted on 9 mm inside diameter flat-top Franz diffusion cells. The diffusional cross-sectional area of the skin was 0.636 cm^2. […] Water at 37.4° C. was circulated throughout the water jacket of the diffusion cell. A 100 microliter sample was withdrawn from the receiver compartment at appropriate intervals and analyzed for drug content by HPLC. The receptor fluid was replenished with normal saline after each withdrawal. All the receptor fluid and replenished fluid were thoroughly degassed before use. The compositions shown below were prepared and tested utilizing the above described test procedure for human skin (in vitro). The results obtained, are shown in FIG. 1 and recorded in Table 1.

**Q.** Which “penetration through the entire skin thickness (speed)” value does the source give for `Clc1ccc(CSC(Cn2ccnc2)c2ccc(Cl)cc2Cl)cc1` (stereo not shown) [SNO3, sulconazole nitrate] here?
**A.** more rapid
